From patent publication US10227369B2, “Short-chain fatty acid hexosamine analogs and their use in tissue engineering applications” (THE JOHNS HOPKINS UNIVERSITY, priority 2013, dated 2019)
For some of these results: At least one structure is not confirmed: it was looked up by name or label, or the drawing left a doubt. Some entries share one result that the patent states for a list of compounds.

Key:
Chondrocytes = test: WST-1 metabolic activity/toxicity screening of monolayer chondrocytes; type: cell-based, bovine; settings: 3 days exposure, 0-320 μM tested
Method: Cell Isolation and Culturing. Bovine chondrocytes were isolated from 4- to 8-week-old calves (Research 87, Inc., Boylston, Mass.), as previously described. Briefly, cartilage was dissected from the femoral patellar groove and condyles and minced into approximately 1 mm^2 pieces. Cells were isolated from the tissue by digesting overnight at 37° C. with 2 mg/ml type II collagenase (Worthington Biochemical Corp., Lakewood, N.J.), 5% fetal bovine serum (FBS), 100 U/ml penicillin and 100 μg/ml streptomycin on an orbital shaker. The cell suspension was passed through a 70 μm cell strainer, followed by centrifugation. Cells were washed 3 times using sterile phosphate buffered saline (PBS). […]
Metabolic Activity/Toxicity Screening: Water Soluble Tetrazonium-1 (WST-1) Assay. […] Absorbance of the wells was read using a microplate reader at a wavelength of 450 nm. The absorbance of the wells containing WST-1 reagent with no cells was subtracted from the absorbance readings. Data is presented as the background subtracted reading normalized to 0 μM wells from five independent experiments for each hexosamine analog.

[1] = test system: chondrogenic-induced MSCs; test: Chondrogenic-induced MSCs in 3D PEGDA hydrogels: real-time PCR gene expression; type: cell-based, goat; settings: dexamethasone 100 nM, both medium conditions
Method: (§1) Goat MSCs were isolated from 2- to 4-year-old goats (Thomas D. Morris, Inc., Reisterstown, Md.), as previously described. Briefly, bone marrow aspirates treated with 6,000 U/ml heparin were washed twice with PBS. Cells were plated at a density of 120,000 mononuclear cells/cm^2 and cultured in high glucose DMEM supplemented with 10% (v/v) FBS, 2 mM L-glutamine, 100 U/ml penicillin and 100 μg/ml streptomycin. The following day, tissue culture dishes were washed with PBS and medium was replaced. Medium changes were performed 3 times per week. Cells were passaged using 0.25% trypsin. They were used for experiments after passage four.
Photoencapsulation in Poly(Ethylene Glycol)-Diacrylate (PEGDA) Hydrogels and Construct Culturing. For all 3D culture experiments, cells were photoencapsulated in PEGDA hydrogels, as previously described. Briefly, 100 mg PEGDA (3.4 kDa, SunBio, Anyang City, South Korea) was dissolved in 1 ml sterile PBS. A photoinitiator solution of Irgacure® 2959 (CIBA Specialty Chemicals) was prepared by dissolving 100 mg of Irgacure® 2959 in 1 ml 70% ethanol. Five microliters of the Irgacure® 2959 solution was added to 1 ml of PEGDA solution. Cells were suspended in the hydrogel precursor solution at a density of 20 million cells/ml and polymerized in sterile molds. A high cell density was chosen as it has been shown. Based on our previous studies a high cell density was chosen to best to support a cell phenotype and differentiation and cell phenotype. Polymerization was carried out using UV light (365 nm, 3.2 mW/cm^2) exposure for 5 minutes. […]
RNA Isolation and Real-Time PCR. […] Real-time PCR was carried out using a StepOnePlus™ Real-Time PCR System (Life Technologies, Grand Island, N.Y.). mRNA amounts for bovine primers were calculated using the ΔΔCt method. Relative mRNA quantities for goat primers were calculated using the Pfaffl method.

[2] = test system: chondrogenic-induced MSCs; test: Chondrogenic-induced MSCs in 3D PEGDA hydrogels: biochemical analysis and histology; type: cell-based, goat; settings: 21 days, GalNAc-a varying concentrations, dexamethasone 100 nM
Method: as §1
Photoencapsulation in Poly(Ethylene Glycol)-Diacrylate (PEGDA) Hydrogels and Construct Culturing. […]
Biochemical Analysis. The constructs (n=3 for chondrocyte experiments and n=4 for chondrogenic experiments) were lyophilized for 48 hours and the dry weights measured. […] Quantification of DNA content was carried out using a Hoescht Dye 33342 DNA assay. […] Quantification of sulfated glycosaminoglycans (sGAG), a molecule found in cartilage ECM, was carried out using a 1,9-dimethylmethylene blue (DMMB) dye assay; chondroitin sulfate was used to generate standard curves. Quantification of collagen was carried out via measuring hydroxyproline content after hydrolyzing in 6 N HCl overnight at 120° C. […]

Row | Structure (SMILES) | concentration from which reduced viability was observed (Chondrocytes) [µM] | type I collagen gene expression compared to no analog exposure ([1]; above 50 μM for GalNAc-a) | aggrecan gene expression ([1]; 21 days) | type II collagen gene expression ([1]; 21 days) | total collagen accumulation normalized to DNA ([2]; ascorbic acid-containing medium) | sGAG accumulation normalized to DNA ([2]; both medium conditions (with/without ascorbic acid))
1 | CCCC(=O)OC[C@H]1OC(O)[C@@H](NC(C)=O)[C@@H](OC(=O)CCC)[C@@H]1OC(=O)CCC (stereo partly shown) [ManNAc-a, 3,4,6-O-Bu3ManNAc] | ≥ 80 | – | – | – | – | –
2 | CCCC(=O)OC[C@H]1OC(O)[C@H](NC(C)=O)[C@@H](OC(=O)CCC)[C@@H]1OC(=O)CCC (stereo partly shown) [GlcNAc-a, 3,4,6-O-Bu3GlcNAc] | ≥ 80 | – | – | – | – | –
3 | C[C@@H]1C[C@H]2[C@@H]3CCC4=CC(=O)C=C[C@]4(C)[C@@]3(F)[C@@H](O)C[C@]2(C)[C@@]1(O)C(=O)CO [Dexamethasone, reference compound] | – | increasing expression of type I collagen | decreased the expression | decreased the expression | reduced total collagen accumulation | reducing sGAG accumulation
